These are yes or no findings as the source states them, for the method shown. Binding seen in cells or lysates may run through a third protein. Binding can be weak; no strength is given. For some assays here: Sequences can lack the tags named with a protein.
Experiments:
[1] = target: T1, GLuc1-tagged μ subunit of the AP-4 complex (UniProt O00189); test: split reporter; protein fragment complementation assay (split luciferase): GLuc1-AP μ subunit and GLuc2-HCV protein transfected pairwise into 293T cells; luciferase at 24 h; normalized luminescence ratio (NLR), positive if NLR >25 (>2.2 SD above a random reference set); mutant panels plotted relative to WT; NS2-AP-1B also tested after treatment with compound 7745, 12i, sunitinib or erlotinib
T1 sequence: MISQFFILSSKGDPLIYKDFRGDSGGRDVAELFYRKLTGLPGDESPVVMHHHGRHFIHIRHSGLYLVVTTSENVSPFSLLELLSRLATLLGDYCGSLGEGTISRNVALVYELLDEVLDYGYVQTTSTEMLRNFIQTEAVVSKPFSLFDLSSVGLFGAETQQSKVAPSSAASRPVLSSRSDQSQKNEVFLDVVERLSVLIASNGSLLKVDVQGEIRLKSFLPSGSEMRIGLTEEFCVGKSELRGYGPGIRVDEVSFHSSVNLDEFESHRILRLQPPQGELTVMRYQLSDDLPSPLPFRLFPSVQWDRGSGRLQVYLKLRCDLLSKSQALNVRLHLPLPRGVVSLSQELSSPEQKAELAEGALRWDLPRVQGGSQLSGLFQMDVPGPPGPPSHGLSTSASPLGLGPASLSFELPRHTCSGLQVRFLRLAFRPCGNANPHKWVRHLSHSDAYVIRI

[2] = target: T2, GLuc1-tagged μ subunit of the AP-1B complex (UniProt Q9Y6Q5); test: as above
T2 sequence: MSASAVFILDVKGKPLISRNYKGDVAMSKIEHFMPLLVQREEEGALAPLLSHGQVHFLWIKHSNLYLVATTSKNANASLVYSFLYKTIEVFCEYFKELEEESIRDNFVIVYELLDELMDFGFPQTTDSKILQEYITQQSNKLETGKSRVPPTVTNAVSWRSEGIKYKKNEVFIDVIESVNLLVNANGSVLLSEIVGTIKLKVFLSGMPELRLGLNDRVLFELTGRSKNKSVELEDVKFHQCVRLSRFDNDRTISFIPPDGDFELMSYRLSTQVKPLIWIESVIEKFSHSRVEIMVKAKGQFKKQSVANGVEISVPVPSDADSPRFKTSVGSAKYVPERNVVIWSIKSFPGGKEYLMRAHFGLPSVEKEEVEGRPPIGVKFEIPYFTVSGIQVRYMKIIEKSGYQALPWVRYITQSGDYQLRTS

[3] = target: T3, GLuc1-tagged μ subunit of the AP-1A complex (UniProt Q9BXS5); test: as above
T3 sequence: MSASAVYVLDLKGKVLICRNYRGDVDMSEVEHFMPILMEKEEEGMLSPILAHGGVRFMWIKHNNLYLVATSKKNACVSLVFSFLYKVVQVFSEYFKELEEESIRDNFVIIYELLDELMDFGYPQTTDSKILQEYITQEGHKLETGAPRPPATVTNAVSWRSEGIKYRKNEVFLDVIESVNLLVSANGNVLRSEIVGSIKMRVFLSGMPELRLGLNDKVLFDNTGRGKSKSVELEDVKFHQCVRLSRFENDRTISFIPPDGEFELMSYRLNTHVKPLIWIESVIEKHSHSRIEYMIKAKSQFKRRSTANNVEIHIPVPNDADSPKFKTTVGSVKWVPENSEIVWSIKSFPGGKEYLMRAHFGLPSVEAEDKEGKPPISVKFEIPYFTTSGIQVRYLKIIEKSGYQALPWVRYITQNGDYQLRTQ

[4] = target: T4, AP-4 ectopically expressed in Huh7.5 cells (UniProt O00189); test: co-IP; membrane fractions of Huh7.5 cells ectopically expressing WT or QM GLuc-NS2 and AP-4; IP with anti-AP-4 antibodies and IgG controls; blots for AP-4 and GLuc (NS2)
T4 sequence: T1 sequence

## GLuc-NS2 D207A (hepatitis C virus (J6/JFH genome))
[1]
  binding: binds
[2]
  binding: binds
[3]
  binding: binds

## GLuc-NS2 E200A (hepatitis C virus (J6/JFH genome))
[1]
  binding: binds
[2]
  binding: binds
[3]
  binding: binds

## GLuc-NS2 double mutant (L202A-L217A) (hepatitis C virus (J6/JFH genome))
[2]
  binding: binds
[3]
  binding: binds

## GLuc-NS2 quadruple mutant (L202A-L203A-L216A-L217A) (hepatitis C virus (J6/JFH genome))
[2]
  binding: binds
[3]
  binding: binds
[4]
  binding: binds
